Test results: the supplement of paper PMC10849652
The other results are listed elsewhere or left out.

Sequences of proteins named here, by UniProt entry; tags and fusion partners are left off. A change or cut given only in a name is not applied to a line headed by its entry.
UniProt Q9Y2Z9: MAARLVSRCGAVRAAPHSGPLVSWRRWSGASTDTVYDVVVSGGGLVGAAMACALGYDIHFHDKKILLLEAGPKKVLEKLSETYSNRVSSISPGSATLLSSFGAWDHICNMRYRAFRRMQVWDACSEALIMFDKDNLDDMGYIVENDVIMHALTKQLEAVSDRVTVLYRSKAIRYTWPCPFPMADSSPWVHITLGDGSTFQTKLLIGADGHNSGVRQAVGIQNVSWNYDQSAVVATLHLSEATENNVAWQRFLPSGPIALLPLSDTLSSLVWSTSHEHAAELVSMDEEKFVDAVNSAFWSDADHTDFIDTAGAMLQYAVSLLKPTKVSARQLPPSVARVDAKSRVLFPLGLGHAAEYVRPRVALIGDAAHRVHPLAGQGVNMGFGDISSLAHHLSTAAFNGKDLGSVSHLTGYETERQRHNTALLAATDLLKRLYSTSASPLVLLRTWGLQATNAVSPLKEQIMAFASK
UniProt Q49B96: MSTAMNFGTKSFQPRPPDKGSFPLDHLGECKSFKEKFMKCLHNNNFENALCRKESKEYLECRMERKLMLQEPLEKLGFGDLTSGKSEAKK
UniProt Q9H0A8, whole entry, looked up: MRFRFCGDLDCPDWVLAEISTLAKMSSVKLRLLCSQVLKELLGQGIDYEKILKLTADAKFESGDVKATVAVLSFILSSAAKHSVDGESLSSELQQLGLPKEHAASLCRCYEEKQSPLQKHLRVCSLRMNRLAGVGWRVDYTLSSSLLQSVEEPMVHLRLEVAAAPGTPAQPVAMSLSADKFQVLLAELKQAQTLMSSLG
UniProt P29373: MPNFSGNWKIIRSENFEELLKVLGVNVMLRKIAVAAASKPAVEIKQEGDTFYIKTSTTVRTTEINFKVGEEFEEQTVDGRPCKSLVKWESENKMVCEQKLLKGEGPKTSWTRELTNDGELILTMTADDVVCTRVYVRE
UniProt Q6P4Q7: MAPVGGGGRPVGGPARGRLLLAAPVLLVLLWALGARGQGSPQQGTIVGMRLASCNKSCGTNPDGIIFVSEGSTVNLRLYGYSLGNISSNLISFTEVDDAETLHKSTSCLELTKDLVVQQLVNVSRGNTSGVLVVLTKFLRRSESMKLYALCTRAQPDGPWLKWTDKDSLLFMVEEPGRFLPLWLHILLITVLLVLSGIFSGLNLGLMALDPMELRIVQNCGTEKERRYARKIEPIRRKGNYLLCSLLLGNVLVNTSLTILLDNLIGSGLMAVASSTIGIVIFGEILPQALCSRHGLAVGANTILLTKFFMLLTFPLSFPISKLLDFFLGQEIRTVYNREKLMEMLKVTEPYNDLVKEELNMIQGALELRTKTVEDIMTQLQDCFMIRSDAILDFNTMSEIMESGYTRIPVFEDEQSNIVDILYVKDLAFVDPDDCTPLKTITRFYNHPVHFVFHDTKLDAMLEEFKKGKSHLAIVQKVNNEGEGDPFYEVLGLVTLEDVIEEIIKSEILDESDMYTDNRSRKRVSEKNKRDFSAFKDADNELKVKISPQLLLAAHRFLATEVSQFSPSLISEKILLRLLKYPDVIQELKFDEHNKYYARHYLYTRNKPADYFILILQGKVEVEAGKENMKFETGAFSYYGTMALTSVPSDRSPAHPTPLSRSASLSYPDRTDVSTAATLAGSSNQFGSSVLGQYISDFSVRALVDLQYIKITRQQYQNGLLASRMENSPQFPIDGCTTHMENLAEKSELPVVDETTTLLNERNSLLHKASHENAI
UniProt P39059: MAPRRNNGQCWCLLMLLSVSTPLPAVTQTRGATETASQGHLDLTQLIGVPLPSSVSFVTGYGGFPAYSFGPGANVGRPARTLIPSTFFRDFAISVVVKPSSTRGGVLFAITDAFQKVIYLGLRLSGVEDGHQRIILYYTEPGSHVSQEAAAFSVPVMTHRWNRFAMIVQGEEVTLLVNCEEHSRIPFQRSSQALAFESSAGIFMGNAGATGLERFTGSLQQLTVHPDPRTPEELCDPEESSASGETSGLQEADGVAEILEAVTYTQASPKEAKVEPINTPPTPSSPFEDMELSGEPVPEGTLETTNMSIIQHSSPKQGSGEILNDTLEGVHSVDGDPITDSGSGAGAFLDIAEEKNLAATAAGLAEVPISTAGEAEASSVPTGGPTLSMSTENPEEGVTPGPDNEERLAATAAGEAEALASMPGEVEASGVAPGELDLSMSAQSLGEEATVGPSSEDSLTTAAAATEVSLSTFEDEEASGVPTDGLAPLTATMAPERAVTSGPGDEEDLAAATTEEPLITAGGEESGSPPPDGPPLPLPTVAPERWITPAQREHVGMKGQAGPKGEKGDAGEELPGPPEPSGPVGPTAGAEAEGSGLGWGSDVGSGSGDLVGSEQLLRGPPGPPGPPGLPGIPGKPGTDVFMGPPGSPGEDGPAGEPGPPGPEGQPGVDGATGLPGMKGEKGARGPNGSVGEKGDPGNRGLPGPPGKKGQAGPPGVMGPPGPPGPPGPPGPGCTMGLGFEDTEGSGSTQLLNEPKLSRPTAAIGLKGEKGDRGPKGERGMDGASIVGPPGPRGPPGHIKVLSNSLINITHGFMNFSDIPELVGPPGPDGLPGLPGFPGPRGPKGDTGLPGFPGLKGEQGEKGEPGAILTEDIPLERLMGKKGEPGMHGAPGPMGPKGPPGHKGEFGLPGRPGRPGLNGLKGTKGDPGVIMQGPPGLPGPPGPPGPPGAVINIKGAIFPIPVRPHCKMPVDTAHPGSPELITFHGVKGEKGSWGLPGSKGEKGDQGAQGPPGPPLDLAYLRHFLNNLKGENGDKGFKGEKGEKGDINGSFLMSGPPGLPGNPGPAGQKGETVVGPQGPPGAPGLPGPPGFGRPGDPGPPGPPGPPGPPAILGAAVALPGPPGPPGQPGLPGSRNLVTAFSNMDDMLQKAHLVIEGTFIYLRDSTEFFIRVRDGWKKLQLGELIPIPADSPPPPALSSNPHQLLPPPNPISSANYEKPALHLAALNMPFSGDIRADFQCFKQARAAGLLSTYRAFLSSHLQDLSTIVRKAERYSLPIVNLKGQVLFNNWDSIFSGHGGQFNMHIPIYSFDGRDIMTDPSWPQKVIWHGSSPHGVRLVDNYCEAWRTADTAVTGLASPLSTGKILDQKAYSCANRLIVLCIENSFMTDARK
UniProt Q9P000, whole entry, looked up: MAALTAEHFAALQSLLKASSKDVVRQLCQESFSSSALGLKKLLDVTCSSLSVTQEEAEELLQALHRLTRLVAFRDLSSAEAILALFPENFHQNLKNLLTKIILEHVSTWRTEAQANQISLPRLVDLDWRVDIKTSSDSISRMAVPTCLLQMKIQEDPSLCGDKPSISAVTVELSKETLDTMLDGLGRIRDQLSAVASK
UniProt Q9Y2B0: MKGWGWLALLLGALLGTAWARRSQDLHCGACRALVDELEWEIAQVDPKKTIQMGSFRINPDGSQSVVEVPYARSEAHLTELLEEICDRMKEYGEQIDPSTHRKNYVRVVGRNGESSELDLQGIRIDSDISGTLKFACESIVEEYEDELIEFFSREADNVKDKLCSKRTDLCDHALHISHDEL
UniProt Q9UKF6: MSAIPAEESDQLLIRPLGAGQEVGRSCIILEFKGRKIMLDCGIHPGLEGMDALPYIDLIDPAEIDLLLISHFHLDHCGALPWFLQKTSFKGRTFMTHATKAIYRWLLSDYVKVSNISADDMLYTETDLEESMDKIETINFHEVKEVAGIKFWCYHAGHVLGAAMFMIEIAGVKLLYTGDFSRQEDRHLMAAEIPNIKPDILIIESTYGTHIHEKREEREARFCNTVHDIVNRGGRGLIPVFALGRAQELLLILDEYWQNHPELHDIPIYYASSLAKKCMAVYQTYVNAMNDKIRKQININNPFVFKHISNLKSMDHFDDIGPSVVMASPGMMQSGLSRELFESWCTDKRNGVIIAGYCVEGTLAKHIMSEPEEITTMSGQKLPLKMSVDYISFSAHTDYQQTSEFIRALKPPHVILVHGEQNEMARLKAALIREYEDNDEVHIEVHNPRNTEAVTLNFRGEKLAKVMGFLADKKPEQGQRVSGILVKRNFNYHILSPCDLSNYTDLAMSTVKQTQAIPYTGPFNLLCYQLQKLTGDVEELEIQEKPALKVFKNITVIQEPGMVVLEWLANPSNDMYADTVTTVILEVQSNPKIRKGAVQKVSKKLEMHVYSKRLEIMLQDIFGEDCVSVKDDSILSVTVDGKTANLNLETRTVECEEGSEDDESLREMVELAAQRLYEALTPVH
UniProt Q9NQ92: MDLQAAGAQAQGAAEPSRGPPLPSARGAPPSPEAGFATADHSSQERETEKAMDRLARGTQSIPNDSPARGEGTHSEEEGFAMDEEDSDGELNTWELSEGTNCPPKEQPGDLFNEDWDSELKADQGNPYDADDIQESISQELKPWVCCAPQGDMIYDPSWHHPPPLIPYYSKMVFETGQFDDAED
UniProt O95639, whole entry, looked up: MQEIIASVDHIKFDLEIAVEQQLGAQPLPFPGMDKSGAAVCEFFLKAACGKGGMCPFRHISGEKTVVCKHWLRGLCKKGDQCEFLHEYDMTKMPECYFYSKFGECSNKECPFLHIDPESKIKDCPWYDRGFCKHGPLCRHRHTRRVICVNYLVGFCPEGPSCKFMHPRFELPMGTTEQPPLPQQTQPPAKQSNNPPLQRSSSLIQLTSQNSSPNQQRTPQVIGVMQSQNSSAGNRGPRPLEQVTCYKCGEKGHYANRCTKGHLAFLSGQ
UniProt Q9UBF2: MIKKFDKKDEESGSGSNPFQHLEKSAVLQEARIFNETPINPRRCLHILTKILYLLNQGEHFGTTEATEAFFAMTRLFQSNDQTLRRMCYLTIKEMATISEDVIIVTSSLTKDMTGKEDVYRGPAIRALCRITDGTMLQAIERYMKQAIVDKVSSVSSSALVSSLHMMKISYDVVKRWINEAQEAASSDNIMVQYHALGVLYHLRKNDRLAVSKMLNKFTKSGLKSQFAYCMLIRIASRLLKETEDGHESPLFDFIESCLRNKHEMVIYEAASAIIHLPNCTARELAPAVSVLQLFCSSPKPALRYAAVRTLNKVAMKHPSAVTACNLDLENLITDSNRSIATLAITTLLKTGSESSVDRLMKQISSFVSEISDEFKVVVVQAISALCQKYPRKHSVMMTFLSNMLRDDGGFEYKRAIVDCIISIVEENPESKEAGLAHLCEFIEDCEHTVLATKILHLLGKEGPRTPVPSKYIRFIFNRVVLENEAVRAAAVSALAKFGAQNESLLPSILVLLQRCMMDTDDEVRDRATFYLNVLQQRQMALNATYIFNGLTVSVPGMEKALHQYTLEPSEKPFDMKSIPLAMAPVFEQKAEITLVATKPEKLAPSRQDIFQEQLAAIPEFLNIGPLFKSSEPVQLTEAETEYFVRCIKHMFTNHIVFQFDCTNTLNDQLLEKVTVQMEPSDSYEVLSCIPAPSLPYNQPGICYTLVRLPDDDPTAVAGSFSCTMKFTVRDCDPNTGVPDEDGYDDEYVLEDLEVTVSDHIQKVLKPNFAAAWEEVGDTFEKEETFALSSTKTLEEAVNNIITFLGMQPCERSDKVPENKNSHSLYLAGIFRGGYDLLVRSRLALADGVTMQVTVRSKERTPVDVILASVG
UniProt Q9UBI1, whole entry, looked up: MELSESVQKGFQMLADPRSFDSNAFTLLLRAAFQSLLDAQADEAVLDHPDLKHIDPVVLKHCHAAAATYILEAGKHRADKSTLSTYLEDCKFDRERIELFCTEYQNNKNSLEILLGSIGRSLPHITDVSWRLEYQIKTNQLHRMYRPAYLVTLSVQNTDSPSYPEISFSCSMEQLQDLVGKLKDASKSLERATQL
UniProt Q16630, whole entry, looked up: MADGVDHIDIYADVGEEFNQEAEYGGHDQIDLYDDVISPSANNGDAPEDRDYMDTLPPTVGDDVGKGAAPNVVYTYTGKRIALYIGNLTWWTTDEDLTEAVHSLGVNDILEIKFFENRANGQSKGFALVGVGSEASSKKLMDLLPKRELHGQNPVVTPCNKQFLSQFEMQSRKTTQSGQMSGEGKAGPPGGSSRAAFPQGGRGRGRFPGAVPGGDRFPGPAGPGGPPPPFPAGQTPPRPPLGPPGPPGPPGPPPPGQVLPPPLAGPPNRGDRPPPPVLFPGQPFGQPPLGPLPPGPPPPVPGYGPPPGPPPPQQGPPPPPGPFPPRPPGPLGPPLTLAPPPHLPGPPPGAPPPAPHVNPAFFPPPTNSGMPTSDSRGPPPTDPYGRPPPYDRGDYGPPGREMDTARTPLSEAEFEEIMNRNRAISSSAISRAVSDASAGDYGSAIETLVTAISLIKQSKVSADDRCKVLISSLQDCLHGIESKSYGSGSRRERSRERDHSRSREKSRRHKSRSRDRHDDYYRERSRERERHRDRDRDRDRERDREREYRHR
UniProt P13073, whole entry, looked up: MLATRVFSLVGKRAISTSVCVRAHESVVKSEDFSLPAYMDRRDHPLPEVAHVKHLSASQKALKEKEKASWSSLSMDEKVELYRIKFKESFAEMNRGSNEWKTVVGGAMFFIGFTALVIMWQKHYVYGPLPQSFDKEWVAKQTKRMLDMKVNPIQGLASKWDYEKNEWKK
UniProt P10606, whole entry, looked up: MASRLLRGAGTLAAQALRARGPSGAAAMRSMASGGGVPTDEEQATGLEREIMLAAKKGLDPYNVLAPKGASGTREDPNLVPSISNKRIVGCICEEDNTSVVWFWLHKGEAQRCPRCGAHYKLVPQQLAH

Assays:
Assay in all cases: log2 fold change, soluble protein after heating vs DMSO (PISA); higher = thermal stabilisation; K562 lysate, 10 uM; active = over 0.2 and 3.5 SD of the protein, either way, in both replicates (recomputed)
[1] = compound: CS(=O)(=O)CCNCc1ccc(-c2ccc3ncnc(Nc4ccc(OCc5cccc(F)c5)c(Cl)c4)c3c2)o1 [lapatinib]
Summary of the method: (§1)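 K562 pellets were dounce-homogenised in PBS pH 7.4 containing 1 mM MgCl2, and the crude extract, at 1 mg/mL protein, was exposed to 10 μM compound for 30 min. Aliquots were heated for 3 min across 48°C-58°C, pooled, brought to 0.5% NP-40 at 4°C and spun at 21,000xg for 90 min, with the supernatant taken as soluble protein. TMTpro 16plex LC-MS/MS with equalised channel sums quantified that protein. Values are log-two fold changes in thermal stability relative to solvent controls, taken from duplicates.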

[2] = compound: CS(=O)(=O)N1CCN(Cc2cc3nc(-c4cccc5[nH]ncc45)nc(N4CCOCC4)c3s2)CC1 [pictilisib]
Summary of the method: as §1

[3] = compound: C[C@@H](Oc1cc(-c2cnn(C3CCNCC3)c2)cnc1N)c1c(Cl)ccc(F)c1Cl [crizotinib]
Summary of the method: as §1

[4] = compound: C[C@H](C1=CC=C(C=C1)C(=O)NC2=C3C=CNC3=NC=C2)N
Summary of the method: as §1

[5] = compound: C[C@H](Nc1ncnc2nc[nH]c12)c1cc2cccc(Cl)c2c(=O)n1-c1ccccc1 [duvelisib]
Summary of the method: as §1

[6] = compound: Cc1cc(Nc2cc(CN3CCOCC3)c3nc(C)c(Cc4ccc(Cl)cc4F)n3n2)n[nH]1 [gandotinib]
Summary of the method: as §1

[7] = compound: Cc1cc(Nc2cc(N3CCN(C)CC3)nc(Sc3ccc(NC(=O)C4CC4)cc3)n2)n[nH]1 [tozasertib]
Summary of the method: as §1

[8] = compound: Cc1ccc(-n2nc(C(C)(C)C)cc2NC(=O)Nc2ccc(OCCN3CCOCC3)c3ccccc23)cc1 [doramapimod]
Summary of the method: as §1

[9] = compound: Cc1ccc(NC(=O)c2ccc(CN3CC[C@H](N(C)C)C3)c(C(F)(F)F)c2)cc1Nc1nccc(-c2cncnc2)n1 [bafetinib]
Summary of the method: as §1

[10] = compound: Cc1cccc(CC(=O)N2CCc3c2ccc(-c2cn(C)c4ncnc(N)c24)c3F)n1
Summary of the method: as §1

[11] = compound: Cc1cn(-c2cc(NC(=O)c3ccc(C)c(Nc4nccc(-c5cccnc5)n4)c3)cc(C(F)(F)F)c2)cn1 [nilotinib]
Summary of the method: as §1

[12] = compound: Cc1nc(Nc2n[nH]c3c2CN(C(=O)N[C@H](CN(C)C)c2ccccc2)C3(C)C)c2sccc2n1
Summary of the method: as §1

[13] = compound: Cc1nc(Nc2ncc(C(=O)Nc3c(C)cccc3Cl)s2)cc(N2CCN(CCO)CC2)n1 [dasatinib]
Summary of the method: as §1

[14] = compound: Cc1ncc(-c2ccnc(Nc3ccc(S(C)(=O)=O)cc3)n2)n1C(C)C
Summary of the method: as §1

[15] = compound: Cn1cc(-c2ccc3c(c2)CCN3C(=O)Cc2cccc(C(F)(F)F)c2)c2c(N)ncnc21
Summary of the method: as §1

[16] = compound: Cn1cc(CNCC2CCN(c3ncc(C(=O)NO)cn3)CC2)c2ccccc21 [quisinostat]
Summary of the method: as §1

[17] = compound: Cn1cncc1[C@@](N)(c1ccc(Cl)cc1)c1ccc2c(c1)c(-c1cccc(Cl)c1)cc(=O)n2C [tipifarnib]
Summary of the method: as §1

[18] = compound: NC(=O)Nc1cc(-c2cccc(F)c2)sc1C(=O)N[C@H]1CCCNC1
Summary of the method: as §1

[19] = compound: NC(=O)c1cnc(N[C@@H]2CCCC[C@@H]2N)nc1Nc1cccc(-n2nccn2)c1
Summary of the method: as §1

[20] = compound: NC1(c2ccc(-c3nc4ccn5c(=O)[nH]nc5c4cc3-c3ccccc3)cc2)CCC1
Summary of the method: as §1

Measured: log2 fold change

COQ6 (UniProt Q9Y2Z9)
inactive: [1] 0.022 | [2] 0.078 | [3] 0.02 | [4] 0.034 | [5] 0.002 | [6] -0.032 | [7] 0.003 | [8] -0.045 | [9] 0.074 | [10] 0.001 | [11] 0.026 | [12] -0.043 | [13] -0.044 | [14] -0.034 | [15] -0.114 | [16] -0.023 | [17] -0.033 | [18] 0.032 | [19] 0.017 | [20] -0.011

COX19 (UniProt Q49B96)
inactive: [1] -0.062 | [2] -0.035 | [3] 0.051 | [4] -0.086 | [5] -0.003 | [6] 0.016 | [7] 0 | [8] -0.005 | [9] 0.047 | [10] -0.044 | [11] -0.002 | [12] -0.038 | [13] 0.021 | [14] 0.018 | [15] -0.044 | [16] 0.026 | [17] 0.042 | [18] -0.003 | [19] 0.022 | [20] -0.029

COMMD4 (UniProt Q9H0A8)
inactive: [1] 0.004 | [2] -0.013 | [3] 0.008 | [4] -0.064 | [5] 0.047 | [6] -0.012 | [7] -0.059 | [8] 0.028 | [9] 0.032 | [10] -0.003 | [11] -0.025 | [12] 0.017 | [13] -0.078 | [14] 0.054 | [15] 0.048 | [16] -0.043 | [17] 0 | [18] 0.012 | [19] -0.03 | [20] 0

CRABP2 (UniProt P29373)
inactive: [1] -0.008 | [2] -0.026 | [3] -0.025 | [4] 0.041 | [5] -0.056 | [6] 0.091 | [7] 0.241 | [8] 0.078 | [9] 0.014 | [10] -0.138 | [11] -0.063 | [12] -0.125 | [13] 0.076 | [14] -0.066 | [15] 0.006 | [16] -0.004 | [17] 0.061 | [18] -0.049 | [19] -0.036 | [20] -0.02

CNNM4 (UniProt Q6P4Q7)
inactive: [1] 0.071 | [2] -0.045 | [3] 0.024 | [4] -0.107 | [5] 0.04 | [6] -0.218 | [7] 0.1 | [8] 0.007 | [9] -0.095 | [10] -0.064 | [11] -0.001 | [12] 0.045 | [13] -0.001 | [14] 0.093 | [15] -0.005 | [16] -0.011 | [17] 0.055 | [18] -0.006 | [19] -0.027 | [20] -0.066

Reprinted from the results shown (3 entries):
COQ6 (UniProt Q9Y2Z9)
inactive: [1] 0.022 | [2] 0.078 | [3] 0.02 | [4] 0.034 | [5] 0.002 | [6] -0.032 | [7] 0.003 | [8] -0.045 | [9] 0.074 | [10] 0.001 | [11] 0.026 | [12] -0.043 | [13] -0.044 | [14] -0.034 | [15] -0.114 | [16] -0.023 | [17] -0.033 | [18] 0.032 | [19] 0.017 | [20] -0.011

COX19 (UniProt Q49B96)
inactive: [1] -0.062 | [2] -0.035 | [3] 0.051 | [4] -0.086 | [5] -0.003 | [6] 0.016 | [7] 0 | [8] -0.005 | [9] 0.047 | [10] -0.044 | [11] -0.002 | [12] -0.038 | [13] 0.021 | [14] 0.018 | [15] -0.044 | [16] 0.026 | [17] 0.042 | [18] -0.003 | [19] 0.022 | [20] -0.029

COMMD4 (UniProt Q9H0A8)
inactive: [1] 0.004 | [2] -0.013 | [3] 0.008 | [4] -0.064 | [5] 0.047 | [6] -0.012 | [7] -0.059 | [8] 0.028 | [9] 0.032 | [10] -0.003 | [11] -0.025 | [12] 0.017 | [13] -0.078 | [14] 0.054 | [15] 0.048 | [16] -0.043 | [17] 0 | [18] 0.012 | [19] -0.03 | [20] 0

(list continues)

COL15A1 (UniProt P39059)
inactive: [1] -0.034 | [2] -0.025 | [3] 0.021 | [4] -0.072 | [5] -0.018 | [6] 0.091 | [7] 0.011 | [8] -0.014 | [9] 0.051 | [10] 0.045 | [11] 0.063 | [12] 0.018 | [13] 0.063 | [14] -0.026 | [15] 0.008 | [16] 0.007 | [17] -0.046 | [18] 0.009 | [19] 0.023 | [20] -0.068

COMMD9 (UniProt Q9P000)
inactive: [1] 0.122 | [2] 0 | [3] 0.013 | [4] 0.092 | [5] 0.047 | [6] -0.044 | [7] -0.003 | [8] 0.015 | [9] 0.024 | [10] -0.086 | [11] 0.136 | [12] 0.008 | [13] 0 | [14] -0.156 | [15] -0.025 | [16] 0.048 | [17] 0.136 | [18] -0.054 | [19] -0.105 | [20] -0.011

CNPY2 (UniProt Q9Y2B0)
inactive: [1] 0.004 | [2] -0.04 | [3] 0.056 | [4] -0.003 | [5] 0.001 | [6] -0.002 | [7] -0.059 | [8] -0.023 | [9] 0.042 | [10] -0.015 | [11] 0.01 | [12] -0.005 | [13] 0.047 | [14] -0.048 | [15] -0.01 | [16] 0.013 | [17] -0.005 | [18] -0.02 | [19] -0.016 | [20] 0.006

CPSF3 (UniProt Q9UKF6)
inactive: [1] 0.001 | [2] 0.003 | [3] -0.002 | [4] -0.019 | [5] 0.008 | [6] -0.007 | [7] 0.044 | [8] 0.03 | [9] 0.004 | [10] -0.014 | [11] -0.009 | [12] 0.01 | [13] -0.003 | [14] -0.005 | [15] 0.026 | [16] 0.016 | [17] -0.013 | [18] -0.004 | [19] -0.014 | [20] 0.017

COPRS (UniProt Q9NQ92)
inactive: [1] -0.065 | [2] 0.069 | [3] 0.002 | [4] -0.304 | [5] 0.038 | [6] 0.136 | [7] -0.001 | [8] 0.022 | [9] -0.064 | [10] 0.086 | [11] -0.122 | [12] 0.038 | [13] -0.037 | [14] 0.038 | [15] 0.017 | [16] -0.044 | [17] 0.018 | [18] 0.041 | [19] -0.069 | [20] -0.04

CPSF4 (UniProt O95639)
inactive: [1] 0.023 | [2] -0.012 | [3] -0.033 | [4] -0.083 | [5] -0.008 | [6] -0.037 | [7] -0.174 | [8] 0.1 | [9] 0.033 | [10] 0.16 | [11] -0.007 | [12] 0 | [13] -0.133 | [14] 0.05 | [15] -0.009 | [16] 0.017 | [17] 0.021 | [18] 0.011 | [19] -0.047 | [20] 0.013

COPG2 (UniProt Q9UBF2)
inactive: [1] -0.015 | [2] -0.03 | [3] -0.009 | [4] 0.011 | [5] 0.015 | [6] -0.015 | [7] -0.009 | [8] 0.022 | [9] -0.032 | [10] 0.001 | [11] 0.024 | [12] -0.002 | [13] -0.038 | [14] 0.008 | [15] 0.004 | [16] -0.006 | [17] -0.017 | [18] 0.017 | [19] -0.013 | [20] 0.002

COMMD3 (UniProt Q9UBI1)
inactive: [1] 0.046 | [2] 0.04 | [3] -0.006 | [4] 0.032 | [5] -0.055 | [6] -0.09 | [7] 0.017 | [8] 0.011 | [9] -0.055 | [10] -0.002 | [11] 0.009 | [12] 0.006 | [13] -0.066 | [14] 0.07 | [15] -0.013 | [16] -0.006 | [17] 0.03 | [18] -0.043 | [19] -0.01 | [20] -0.017

CPSF6 isoform 2 (UniProt Q16630)
inactive: [1] 0.005 | [2] 0 | [3] 0.054 | [4] -0.017 | [5] 0.001 | [6] -0.108 | [7] 0.008 | [8] 0 | [9] 0.022 | [10] 0.008 | [11] 0.01 | [12] -0.055 | [13] -0.021 | [14] -0.006 | [15] 0.009 | [16] 0.102 | [17] 0.019 | [18] -0.032 | [19] 0.004 | [20] 0.052

COX4I1 (UniProt P13073)
inactive: [1] -0.035 | [2] -0.048 | [3] 0.033 | [4] -0.058 | [5] -0.012 | [6] 0.061 | [7] -0.017 | [8] -0.022 | [9] -0.03 | [10] 0.016 | [11] 0.038 | [12] -0.01 | [13] -0.016 | [14] 0.019 | [15] -0.03 | [16] 0.024 | [17] 0.075 | [18] 0.016 | [19] -0.046 | [20] 0.011

COX5B (UniProt P10606)
inactive: [1] 0.045 | [2] -0.019 | [3] 0.036 | [4] 0.13 | [5] -0.011 | [6] -0.119 | [7] 0.01 | [8] 0.011 | [9] 0.003 | [10] -0.07 | [11] 0.079 | [12] 0.03 | [13] 0.011 | [14] 0.147 | [15] -0.078 | [16] 0.013 | [17] 0.067 | [18] -0.041 | [19] -0.048 | [20] 0.034
